Assay results as given in US20260085322.
For at least one entry, the source does not settle the construct or the ends of the probe. Where cells or extracts were used, other partners may take part. Where a protein sequence is shown, tags need not be part of it.

Biological target: T1, RBFOX2 (Mus musculus) (UniProt Q8BP71)
T1 sequence (looked up, limits assumed): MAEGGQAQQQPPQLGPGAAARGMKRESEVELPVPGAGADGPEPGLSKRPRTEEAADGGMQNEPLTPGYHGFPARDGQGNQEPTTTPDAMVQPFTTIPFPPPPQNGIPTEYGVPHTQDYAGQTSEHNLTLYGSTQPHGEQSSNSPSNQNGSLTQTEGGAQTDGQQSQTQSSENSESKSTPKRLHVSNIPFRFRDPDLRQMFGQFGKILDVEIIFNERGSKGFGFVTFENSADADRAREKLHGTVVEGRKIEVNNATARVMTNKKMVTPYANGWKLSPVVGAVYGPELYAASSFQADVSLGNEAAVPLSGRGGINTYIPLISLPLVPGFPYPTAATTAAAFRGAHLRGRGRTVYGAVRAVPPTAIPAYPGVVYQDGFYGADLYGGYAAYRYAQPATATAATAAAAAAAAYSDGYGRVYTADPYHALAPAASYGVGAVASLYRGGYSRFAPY
Experiment: binding assay
Conditions: eiCLIP; motif enriched at crosslink sites; protein in cells

Sequence: UGCAUG [RBFOX2 consensus motif (U)GCAUG]
- binding result: binds
